In paper PMC3126847:
These are yes or no findings as the source states them, for the method shown. Some binding calls cover weakened binding; strength is not graded here. Where a sequence is shown, tags or fusion partners need not be part of it.

Target: T1, VapC Rv0617 (Mycobacterium tuberculosis H37Ra) (UniProt P9WF79)
T1 sequence: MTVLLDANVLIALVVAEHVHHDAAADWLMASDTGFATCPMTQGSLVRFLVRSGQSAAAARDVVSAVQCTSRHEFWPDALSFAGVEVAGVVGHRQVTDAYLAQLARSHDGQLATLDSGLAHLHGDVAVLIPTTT
Test: co-purification of a co-expressed complex

B1: VapB antitoxin Rv0616A (protein, UniProt P9WJ37 1-75)
chain: MRTTIDLPQDLHKQALAIARDTHRTLSETVADLMRRGLAANRPTALSSDPRTGLPLVSVGTVVTSEDVRSLEDEQ
  binding: binds
